# The whole screen tested about 400,000 compounds, of which about 5,500 (1.4%) were called active. Inconclusive means that the source gave no clear call. Such entries were picked first, then a sample of the others. The call rests on the fitted dose curve; in most records, active means well fitted cell-killing curve with a large enough effect; inconclusive means small, poorly fitted or top-dose-only effect, or effect the other way; inactive means flat fitted curve, though single readings scatter. Potencies beside an inconclusive call are fits to weak or partial responses and may not hold up.
# Test: qHTS assay for MDR1-selective chemotherapeutics: Primary screen using the parental adenocarcinoma cell KB-3-1; further: nearly all actives have a fitted effect of over 60% in size
# Details: KB-3-1 viability, CellTiter-Glo ATP luminescence, 72 h; activity change, negative = cytotoxic: at 46.1 µM (top of the series)
# Outline: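 Cytotoxicity measured as CellTiter-Glo luminescence after 72 h at 37 C. Compound titrations were pinned onto drug-naive KB-3-1 parental adenocarcinoma cells grown in DMEM with 10% FBS, and normalized data fitted to concentration-response curves.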
# On the % scale 0 is the no-effect control and ±100 the full control effect; potency means the concentration at half of the fitted maximal effect.
Structure (SMILES),Potency,"activity change, negative = cytotoxic"
O=[N+]([O-])c1ccc(Oc2cccnc2)c([N+](=O)[O-])c1,"inconclusive: 29.1 µM [cytotoxic, single point]",–
Cc1ccc(CNC(=O)CSc2nc(N3CCCCC3)nc(N3CCCCC3)n2)cc1,"inconclusive: 11.6 µM [cytotoxic, partial curve, poor fit]",–
Cc1nc(N2CCCC2)ncc1C(=O)Nc1ccc(F)cc1F,inactive,–
COc1ccc(/C=N\NC(=O)c2ccccc2)cc1COc1ccccc1,inactive,–
Cc1cc(C)cc(N(C(C)C(=O)NCc2ccc3c(c2)OCO3)S(C)(=O)=O)c1 (stereo not given),"inconclusive: 23.1 µM [rising, partial curve, poor fit]",–
COc1nc(-c2ccccc2)cc(-c2ccc3c(c2)OCO3)c1C#N,active: 1.84 µM,–
COCCNC(=O)C1(C)CCCN(Cc2cc(-c3ccccc3)nn2C)C1 (stereo not given),inactive,–
CC(C)N(Cc1ccccc1)C(=O)CCS(=O)(=O)c1ccc2c(c1)oc(=O)n2C,"inconclusive: 29.1 µM [rising, single point]",–
COc1ccc(CCNC(=O)c2ccc(-c3cccc([N+](=O)[O-])c3)o2)cc1OC,inactive,–
COc1ccc(N2CCN(C(=S)NC(=O)c3cccs3)CC2)c([N+](=O)[O-])c1,–,inconclusive: -70.9%
CCN(CC)C(=O)Cc1cn(C)c2ccccc12,"inconclusive: 9.2 µM [rising, partial curve, poor fit]",–
COc1cccc(-c2nc(CS(=O)(=O)CC(=O)NC3CCCCC3C)c(C)o2)c1 (stereo not given),"inconclusive: 18.4 µM [cytotoxic, single point]",–
CCOC(=O)COc1nc(Nc2ccccc2C)nc(N(C)C)n1,"inconclusive: 35.5 µM [cytotoxic, single point]",–
Cc1ccc(S(=O)(=O)Nc2ccccc2C(=O)N2CCOCC2)cc1,"inconclusive: 0.0052 µM [cytotoxic, full curve, poor fit]",–
COc1cc2[nH]c(=O)n(CCCC(=O)NCc3ccccc3)c(=O)c2cc1OC,inactive,–
O=C(Cc1cccs1)Nc1nc2c(s1)CCCC2,"inconclusive: 8.2 µM [cytotoxic, partial curve, poor fit]",–
COc1ccccc1CNC(=O)CN1C(=O)CCc2cc(S(=O)(=O)N3CCOCC3)ccc21,inactive,–
COc1ccccc1/C=C/c1nc2ccccc2c(=O)o1,inactive,–
COc1ccc(CNC(=O)c2c(Nc3ccccc3C)sc(C(=O)c3ccccc3)c2N)cc1,"inconclusive: 18.4 µM [cytotoxic, single point]",–
Cn1cc(/C=C2\SC(=O)N(c3ccc(O)cc3)C2=O)c2ccccc21,"inconclusive: 18.4 µM [cytotoxic, single point]",–

# At a glance, some entries already given.
Structure (SMILES),Potency,"activity change, negative = cytotoxic"
COCCNC(=O)C1(C)CCCN(Cc2cc(-c3ccccc3)nn2C)C1 (stereo not given),inactive,–
CC(C)N(Cc1ccccc1)C(=O)CCS(=O)(=O)c1ccc2c(c1)oc(=O)n2C,"inconclusive: 29.1 µM [rising, single point]",–

# Reference: PubChem BioAssay AID1347075 (National Center for Advancing Translational Sciences (NCATS), 2019)
